Source: patent US20100196469A1, “Pharmaceutical Formulation containing an HMG-COA Reductase Inhibitor and method for the preparation thereof” (PHARMATHEN S.A., priority 2007, published 2010)
Where a name gives a salt, the structure may show the parent alone.

Tests used:
[1] = Dissolution test, Paddle Apparatus 75 rpm, 37° C., 1000 ml H2O; format: physicochemical; settings: paddle 75 rpm
Protocol: One of the most critical pharmacotechnical tests, is the Dissolution test as it is strongly correlated with the bioavailability of the product. For the dissolution method a Paddle Apparatus was used 75 rpm, 37° C., time 30 min, while as a dissolution medium 1000 ml of H2O was used.

[2] = Carr's Index (flow properties); format: physicochemical; settings: pure pharmaceutical substance
Description: However, when Attapulgite was incorporated according to the present invention, a decrease of 19% of the Carr Index was observed, which indicates an improvement of the flow properties of Atorvastatin and therefore the use of a direct compression for the final formulation.

- Dissolution profile ([1]; 5 min): 15.37
- Dissolution profile ([1]; 15 min): 50.80
- Dissolution profile ([1]; 30 min): 58.48
- mean Carr's Index [2]: 22.3%
Compound: CC(C)c1c(C(=O)Nc2ccccc2)c(-c2ccccc2)c(-c2ccc(F)cc2)n1CC[C@@H](O)C[C@@H](O)CC(=O)O (relative stereo) [Atorvastatin, [R—(R*,R*)]-2-(4-fluorophenyl)-b,d-dihydroxy-5-(1-methylethyl)-3-phenyl-4[(phenylamino)carbonyl]-1H -pyrrole-1-heptanoic acid, calcium salt (2:1) trihydrate]
